No constants are given. Whether binding was seen depends on the method and setting. Binding seen in cells or lysates may run through a third protein. Some binding calls cover weakened binding; strength is not graded here. Tags and fused reporters may be left off the sequences shown.

From patent publication US20060003434A1 come the findings set out here.

For test [1], the target named is T1, 3HaMus81, endonuclease-inactive version of Mus81 (AA) (human) (UniProt Q96NY9).
T1 sequence (looked up): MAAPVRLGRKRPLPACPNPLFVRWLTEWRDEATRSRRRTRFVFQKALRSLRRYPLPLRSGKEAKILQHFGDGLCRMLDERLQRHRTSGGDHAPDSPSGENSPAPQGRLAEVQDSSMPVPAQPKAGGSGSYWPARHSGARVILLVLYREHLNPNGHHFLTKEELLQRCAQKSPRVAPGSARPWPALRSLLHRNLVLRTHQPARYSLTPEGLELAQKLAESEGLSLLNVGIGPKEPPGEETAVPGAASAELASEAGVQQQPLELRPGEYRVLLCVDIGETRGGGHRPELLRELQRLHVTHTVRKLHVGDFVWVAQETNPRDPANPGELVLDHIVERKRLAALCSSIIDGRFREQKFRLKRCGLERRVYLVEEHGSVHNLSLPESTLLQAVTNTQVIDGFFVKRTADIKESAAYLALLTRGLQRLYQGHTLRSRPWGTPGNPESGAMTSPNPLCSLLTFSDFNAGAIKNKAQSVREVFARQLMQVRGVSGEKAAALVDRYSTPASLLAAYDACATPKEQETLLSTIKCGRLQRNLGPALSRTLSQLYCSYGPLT
In words: co-immunoprecipitation (Ha IP, FLAG blot), transfected cells.

Test [2] deals with T1, 3HaMus81, endonuclease-inactive version of Mus81 (AA) (human). In words: co-immunoprecipitation (Ha IP, FLAG blot), transfected cells, FIG. 13C.
Test [3] concerns the target T2, FLAG-Eme1 (human Eme1 FLAG tagged at the C terminus; form A, B or C not stated at these places) (human) (UniProt Q96AY2).
T2 sequence (looked up): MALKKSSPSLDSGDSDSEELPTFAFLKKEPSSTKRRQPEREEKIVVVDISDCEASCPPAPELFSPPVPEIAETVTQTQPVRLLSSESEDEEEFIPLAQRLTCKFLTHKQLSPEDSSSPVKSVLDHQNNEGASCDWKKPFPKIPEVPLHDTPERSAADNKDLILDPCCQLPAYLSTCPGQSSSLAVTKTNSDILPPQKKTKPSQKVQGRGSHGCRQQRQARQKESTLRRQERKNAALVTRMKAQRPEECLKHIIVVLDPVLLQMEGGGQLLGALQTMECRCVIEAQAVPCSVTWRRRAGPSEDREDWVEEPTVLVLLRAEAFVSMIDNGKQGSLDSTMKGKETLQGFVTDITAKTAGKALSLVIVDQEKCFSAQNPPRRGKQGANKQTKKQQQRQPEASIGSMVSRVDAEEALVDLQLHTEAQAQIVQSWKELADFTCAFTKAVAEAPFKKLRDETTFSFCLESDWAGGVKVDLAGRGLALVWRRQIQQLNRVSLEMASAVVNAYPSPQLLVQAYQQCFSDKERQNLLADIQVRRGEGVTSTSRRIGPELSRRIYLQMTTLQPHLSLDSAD
In words: co-immunoprecipitation (anti-FLAG IP, Ha blot), transfected 293 cells, FIG. 15B.

For test [4], the target named is T2, FLAG-Eme1 (human Eme1 FLAG tagged at the C terminus; form A, B or C not stated at these places) (human). In words: co-immunoprecipitation (anti-FLAG IP, Ha blot), self-association of Eme1, transfected 293 cells.

B1: FLAG-Heme1B (human Eme1B, FLAG tagged at the C terminus) (protein, not shown: small tags and cut ends)
chain: MALKKSSPSLDSGDSDSEELPTFAFLKKEPSSTKRRQPEREEKIVVVDISDCEASCPPAPELFSPPVPDIAETVTQTQPVRLLSSESEDEEEFIPLAQRLTCKFLTHKQLSPEDSSSPVKSVLDHQNNEGASCDWKKQPFPKIPEVPLHDTPERSAADNKDLILDPCCQLPAYLSTCPGQSSSLAVTKTNSDILPPQKKTKPSQKVQGRGSHGCRQQRQARQKESTLRRQERKNAALVTRMKAQRPEECLKHIIVVLDPVLLQMEGGGQLLGALQTMECRCVIEAQAVPCSVTWRRRAGPSEDREDWVEEPTVLVLLRAEAFVSMIDNGKQGSLDSTMKGKETLQGFVTDITAKTAGKALSLVIVDQEKCFSAQNPPRRGKQGANKQTKKQQQRQPEASIGSMVSRVDAEEALVDLQLHTEAQAQIVQSWKELADFTCAFTKAVAEAPFKKLRDETTFSFCLESDWAGGVKVDLAGRGLALVWRRQIQQLNRVSLEMASAVVNAYPSPQLLVQAYQQCFSDKERQNLLADIQVRRGEGVTSTSRRIGPELSRRIYLQMTTLQPHLSLDSAD
Consider B1, for which the binding result in test [1] and in test [2] was “binds” each time.

B2: 3HaEme1 (Heme1B cloned into pcDNA-3Ha) (protein, not shown: small tags and cut ends)
chain: B1 chain
B2: the binding entry in test [3] and in test [4] was “binds” throughout.
